Results are given in words; binding and its absence hold for the method and conditions named. In cells and extracts the contact can be indirect. Some binding calls cover weakened binding; strength is not graded here.
Assays:
[1] = target: c-Met (hepatocyte growth factor receptor), endogenous in β1A and β1A-YYFF cells (mouse (endogenous in β1A cells)) (UniProt P16056); assay: co-IP; β1A (and β1A-YYFF) cells, HGF for 0 or 120 min; lysis in 0.5% Triton X-100, 20 mM Tris pH 7.5, 150 mM NaCl; immunoprecipitation with c-Met B2 antibody on protein A/G agarose beads, 4 °C; IgG and beads-only controls; western blot
[2] = target: c-Met (hepatocyte growth factor receptor), endogenous in β1A and β1A-YYFF cells (mouse (endogenous in β1A cells)) (UniProt P16056); assay: co-IP; β1A cells, HGF for 0 or 120 min; cell surface proteins biotinylated at 4 °C and removed by streptavidin pull-down; immunoprecipitation with c-Met B2 antibody or IgG control on the intracellular fractions; western blot

Chains of the proteins cited; added tags and fusions are not shown. Residues count along the entry.
UniProt P16056, residues 25-1379: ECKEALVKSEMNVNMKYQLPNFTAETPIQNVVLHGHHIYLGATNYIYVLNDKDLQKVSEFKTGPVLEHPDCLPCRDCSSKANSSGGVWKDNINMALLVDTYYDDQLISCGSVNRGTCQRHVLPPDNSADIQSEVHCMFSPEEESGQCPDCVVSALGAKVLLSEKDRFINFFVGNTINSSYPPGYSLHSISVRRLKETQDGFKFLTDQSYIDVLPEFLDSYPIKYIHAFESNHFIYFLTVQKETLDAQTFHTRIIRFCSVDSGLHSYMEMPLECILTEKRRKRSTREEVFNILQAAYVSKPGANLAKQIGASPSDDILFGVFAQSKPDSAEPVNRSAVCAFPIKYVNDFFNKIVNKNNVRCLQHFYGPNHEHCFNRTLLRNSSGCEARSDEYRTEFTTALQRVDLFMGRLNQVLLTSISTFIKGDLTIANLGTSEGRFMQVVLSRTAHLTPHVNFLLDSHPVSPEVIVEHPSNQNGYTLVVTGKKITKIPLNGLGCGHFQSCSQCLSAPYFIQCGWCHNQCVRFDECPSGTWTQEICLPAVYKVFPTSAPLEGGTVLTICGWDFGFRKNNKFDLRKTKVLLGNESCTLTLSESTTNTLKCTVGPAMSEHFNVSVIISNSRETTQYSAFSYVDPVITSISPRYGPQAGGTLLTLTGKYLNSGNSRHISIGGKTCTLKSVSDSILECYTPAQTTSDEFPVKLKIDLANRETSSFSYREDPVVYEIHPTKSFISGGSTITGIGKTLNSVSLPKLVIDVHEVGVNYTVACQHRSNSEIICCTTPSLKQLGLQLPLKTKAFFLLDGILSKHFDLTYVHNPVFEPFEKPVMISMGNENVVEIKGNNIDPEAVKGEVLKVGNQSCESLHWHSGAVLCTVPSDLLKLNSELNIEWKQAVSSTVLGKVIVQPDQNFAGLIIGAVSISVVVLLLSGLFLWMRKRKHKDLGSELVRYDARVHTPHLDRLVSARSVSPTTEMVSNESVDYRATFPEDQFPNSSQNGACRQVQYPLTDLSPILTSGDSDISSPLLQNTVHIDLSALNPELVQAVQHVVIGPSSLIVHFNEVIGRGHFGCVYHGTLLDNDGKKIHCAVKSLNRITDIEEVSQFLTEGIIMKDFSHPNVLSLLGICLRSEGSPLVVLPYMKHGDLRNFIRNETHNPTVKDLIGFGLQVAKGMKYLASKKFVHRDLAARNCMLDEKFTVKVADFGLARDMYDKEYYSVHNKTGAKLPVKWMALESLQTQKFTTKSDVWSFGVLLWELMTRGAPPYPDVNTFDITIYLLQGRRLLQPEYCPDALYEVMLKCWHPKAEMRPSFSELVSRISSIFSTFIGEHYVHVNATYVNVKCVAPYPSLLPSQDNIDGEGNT
UniProt P09055, residues 21-798: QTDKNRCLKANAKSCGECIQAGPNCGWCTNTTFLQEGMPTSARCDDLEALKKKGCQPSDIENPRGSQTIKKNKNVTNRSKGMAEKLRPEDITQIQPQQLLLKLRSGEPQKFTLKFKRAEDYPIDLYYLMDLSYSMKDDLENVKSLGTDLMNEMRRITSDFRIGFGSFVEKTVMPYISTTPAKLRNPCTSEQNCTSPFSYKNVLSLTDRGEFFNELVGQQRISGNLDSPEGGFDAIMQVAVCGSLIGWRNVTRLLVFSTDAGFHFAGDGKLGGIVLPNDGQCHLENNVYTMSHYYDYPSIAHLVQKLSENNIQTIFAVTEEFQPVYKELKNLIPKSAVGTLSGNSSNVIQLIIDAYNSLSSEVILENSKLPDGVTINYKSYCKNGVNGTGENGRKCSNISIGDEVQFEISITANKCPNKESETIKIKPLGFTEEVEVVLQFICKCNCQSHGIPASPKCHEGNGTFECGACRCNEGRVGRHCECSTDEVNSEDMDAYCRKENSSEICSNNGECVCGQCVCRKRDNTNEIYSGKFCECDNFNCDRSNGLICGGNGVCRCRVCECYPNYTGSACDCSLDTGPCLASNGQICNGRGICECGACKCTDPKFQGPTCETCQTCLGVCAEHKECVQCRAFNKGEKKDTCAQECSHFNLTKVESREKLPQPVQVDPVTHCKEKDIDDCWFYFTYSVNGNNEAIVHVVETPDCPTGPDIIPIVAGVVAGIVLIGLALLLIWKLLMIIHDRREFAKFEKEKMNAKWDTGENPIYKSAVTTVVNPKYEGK

In the case of “β1-integrin (wild-type β1A) re-expressed in β1-integrin null GD25 cells (from UniProt P09055-1 21-798) (receptor)”, the binding [1] is reported as “binds” and the binding [2] is reported as “binds”.
